{
  "sequences": {"note": "By UniProt entry, the sequences of proteins in these tests, tags left out. Residues count along the entry.", "UniProt Q13490, 260-352 limits assumed": "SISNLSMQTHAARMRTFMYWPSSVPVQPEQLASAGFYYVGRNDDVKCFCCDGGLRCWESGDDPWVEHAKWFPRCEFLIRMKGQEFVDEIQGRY"},
  "source": "patent US8445440B2",
  "about": "“Dimeric IAP inhibitors” (Novartis AG, priority 2010, dated 2013)",
  "key": {"cIAP1-BIR3": {"molecular_target": "cIAP1-BIR3 (Homo sapiens, UniProt Q13490)", "test": "Biacore SPR solution competition binding assay vs smac7 mer peptide, cIAP1-BIR3", "conditions": "read-out: CIAP-BIR3 Binding Biacore (Competitive) EC50, citrate salt form tested, 6 nM cIAP1-BIR3, 25° C.", "from_the_text": "(§1) The compounds described herein above were profiled using a cellular assay (using SKOV3 or Panc3.27 tumor cells) and a binding assay to determine the competition between the compounds of the present invention and smac7 mer peptide for XIAP-BIR3 and cIAP1-BIR3 binding groove occupancy.\n(§2) The present method includes utility of a Surface plasmon resonance (SPR)-based biosensor (Biacore™ GE Healthcare, Uppsala, Sweden) to examine competition between the compounds of the present invention and smac7 mer peptide for XIAP-BIR3 and cIAP1-BIR3 binding groove occupancy.\n(§3) Biacore™ utilizes the phenomenon of surface plasmon resonance (SPR) to detect and measure binding interactions. […] Changes in refractive index or signal are recorded in resonance units (R.U.) Signal changes due to association and dissociation of complexes are monitored in a non-invasive manner, continuously and in real-time, the results of which are reported in the form of a sensorgram. […]\n(§4) Data analyses were carried out using Biacore™ T100 evaluation software v2.0 to validate assay quality. Binding level report points were plotted versus logarithmic compound concentration values and analyzed in Graphpad prism 5 via non-linear regression using a one-site competition model. […]"}, "XIAP-BIR3": {"molecular_target": "XIAP-BIR3 (Homo sapiens, UniProt P98170)", "test": "Biacore SPR solution competition binding assay vs smac7 mer peptide, XIAP-BIR3", "conditions": "read-out: XIAP-BIR3 Binding Biacore (Competitive) EC50, citrate salt form tested, 100 nM XIAP-BIR3, 25° C.", "from_the_text": "as §1, §2, §3, §4"}, "Panc3.27 tumor cells": {"system": "Panc3.27 tumor cells", "test": "Cellular assay, Panc3.27 tumor cell proliferation (Cell Titer Glo)", "conditions": "read-out: PANC proliferation IC50, citrate salt form tested, Panc3.27 cells, 72 hour growth", "procedure": "as §1\n(§5) On day one adherent SKOV3 and Panc3.27 cells are plated into two 96-well, clear, flat bottom plates. All wells in row A contain 90 uL of media. All wells in rows B-G contain a total volume of 90 uL per well and 2000 cells per well for SKOV3 and 4000 cells per well for Panc3.27 cell lines. Plates are then incubated overnight for 18 hours at 37° C., 5% CO2. […]\n(§6) To measure cell viability 50 uL of Cell Titer Glo (CTG) solution is added to row A, media only and B, cells and media. […] After incubating for ten minutes with CTG plates are measured on a luminescent reader at 700 nm wavelength. Read time is approximately one second per well for a 96-well plate.\n(§7) On day five 50 uL of CTG is added to plate one, rows A-G, incubated for 10 minutes at room temperature and read on a luminescent reader. […] Triplicate values are averaged and percent control growth is calculated. Percent control growth is calculated using the following logical test: If well read data point (a) is greater than time zero data point (t=0), then 100*[(a)−(t=0)]/[(72 hour total growth)−(t=0)], OR 100*[(a)−(t=0)]/[(t=0)]. […]"}, "SKOV3 tumor cells": {"system": "SKOV3 tumor cells", "test": "Cellular assay, SKOV3 tumor cell proliferation (Cell Titer Glo)", "conditions": "read-out: SKOV3 proliferation IC50, citrate salt form tested, 72 hour growth", "procedure": "as §1, §5, §6, §7"}},
  "note": "The structures given here were assigned with low confidence; some may be wrong.",
  "data": [
    {"smiles": "CN[C@@H](C)C(=O)N[C@@H](CCCCNS(=O)(=O)c1cccc(S(=O)(=O)NCCCC[C@H](NC(=O)[C@H](C)NC)C(=O)N2CCC[C@H]2c2cncc(C(=O)c3ccc(F)cc3)c2)c1)C(=O)N1CCC[C@H]1c1cncc(C(=O)c2ccc(F)cc2)c1", "values": [
      {"measurement": "EC50", "setting": "cIAP1-BIR3", "value": 0.68, "unit": "nM"},
      {"measurement": "EC50", "setting": "XIAP-BIR3", "value": "66.5 to 72.8", "unit": "nM"},
      {"measurement": "IC50", "setting": "Panc3.27 tumor cells", "value": "43.5 to 246", "unit": "nM"},
      {"measurement": "IC50", "setting": "SKOV3 tumor cells", "value": "81.1 to 83.8", "unit": "nM"}
    ]}
  ]
}
